Laboratory results: PubChem BioAssay AID2685 (National Center for Advancing Translational Sciences (NCATS), 2010)
Where “and” joins values, the source holds several entries; their conditions need not be identical. Identical values can stand only once. The list shows a part of the results. Shown are side measurements of this screen, not its main read-out; they come without a call. Most of these compounds were active or inconclusive in the main read-out, so they are no random draw. Words in brackets tell the shape of the fitted curve; partial curves, single points and poor fits give uncertain potencies.

Assay: qHTS Assay for Lipid Storage Modulators in Drosophila S3 Cells;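 for cell number change: cells counted by Cell Tracker Red CMTPX staining in the red channel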
Details: BODIPY lipid droplet fluorescence, 18-24 h; for cell number change: measured here: cell count max response, cells fed with added oleic acid
Outline: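 Laser-scanning cytometry quantifies lipid droplet accumulation (500–530 nm total intensity; droplet/cell object ratio) in oleic acid-fed (400 uM added) Drosophila S3 cells treated with a concentration series. 20 uM Triacsin C defined 100% inhibition.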

[1] = measured here: lipid fluorescence (Fed channel) AC50, cells fed with added oleic acid
[2] = measured here: cell number channel AC50, cells fed with added oleic acid

Compound	cell number change	AC50 [1]	AC50 [2]
CCOC(=O)/C(C#N)=C/c1c[nH]c2ccccc12	-29.9% and -28.9%	16.4 µM [falling, single point] and 29.1 µM [falling, single point]	–
Cc1c(C(=O)N2CCCCC2C)sc2nc3n(c(=O)c12)CCC3 (centres undefined)	9.25%	0.58 µM [rising, full curve]	–
CC1CN(S(=O)(=O)c2ccc(C(=O)Nc3nnc(-c4ccc5c(c4)CCCC5)o3)cc2)CC(C)O1 (centres undefined)	38.7%	–	29.1 µM [rising, single point]
O=C(c1ccc([N+](=O)[O-])cc1)N1CCN(C(=O)C2CCCCC2)CC1	10.1%	–	–
Cc1ccc(N2CC(C(=O)NC3=NCCS3)CC2=O)cc1 (centres undefined)	-23.1%	–	3.66 µM [falling, full curve, poor fit]
COc1cc(-c2cc(C(=O)N3CCCCCC3)c3ccccc3n2)cc(OC)c1OC	-32.8%	–	11.6 µM [falling, partial curve]
COc1ccc2nc(NC(=O)CSc3nnc(-c4ccoc4C)n3C)sc2c1	-9.6%	0.116 µM [falling, full curve, poor fit]	–
COc1ccc(C(=O)CC(CC(=O)c2ccc(OC)cc2)C(=O)O)cc1	15.3%	18.4 µM [rising, partial curve, poor fit]	–
CCn1c(C)nc2cc(C(=O)N=Nc3c(O)[nH]c4c(C)cc(C)cc34)ccc21	10.6%	6.51 µM [rising, single point]	5.17 µM [rising, single point]
Cc1oc2ccccc2c1CNC(=O)N(C)C	20.4%	2.59 µM [rising, full curve, poor fit]	–
O=C(N1CCOCC1)C1(c2ccc(Cl)cc2)CCCC1	35.5%	–	29.1 µM [rising, partial curve]
Cn1c(SCC(=O)Nc2ccc(N3CCOCC3)cc2)nnc1-c1ccco1	-10.3%	5.8 µM [rising, partial curve]	0.0651 µM [falling, full curve, poor fit]
Brc1ccc(-c2csc(/N=C/N3CCOCC3)n2)cc1	107%	20.6 µM [rising, partial curve]	18.4 µM [rising, single point]
CCN(CC)C(=O)C1CCCN(c2ncnc3c2cnn3-c2cccc(C)c2)C1 (centres undefined)	-15.5%	1.84 µM [rising, partial curve, poor fit]	–
COc1cccc(N2C(=O)C(CC(=O)Nc3ccccc3)N(C3CCCCC3)C2=O)c1 (centres undefined)	106%	–	20.6 µM [rising, single point]
N#Cc1c(C#N)c(-c2ccccc2)n(-c2ccc(C(=O)O)cc2)c1N	-23.3%	0.651 µM [falling, full curve]	–
CC1(C)C=Cc2c(c3c(c4c(=O)c(-c5ccc(O)cc5)coc24)OC(C)(C)CC3)O1	-31.4%	25.9 µM [falling, partial curve]	20.6 µM [falling, single point]
CC(C)C[C@@H](CO)N1CCN(Cc2ccc(O)cc2)CCC1=O	35%	5.8 µM [rising, full curve]	0.146 µM [rising, full curve]
COc1ccc(S[C@@H](CCN2CC[C@H](O)CCC2=O)c2ccccc2)cc1	10.1%	0.00461 µM [falling, full curve, poor fit]	0.517 µM [falling, full curve, poor fit]
CC(C)(C)n1nnnc1C(c1ccccn1)N(Cc1ccccc1)Cc1ccc(Cl)cc1 (centres undefined)	-18.1%	0.00517 µM [falling, full curve, poor fit]	0.0164 µM [falling, full curve, poor fit]
CCNC(=S)NN(c1ccccc1)c1ccccc1	4.83%	6.51 µM [falling, single point]	–
C/C(=N\Nc1ccccc1C)c1cccnc1	-8.03%	16.4 µM [rising, partial curve, poor fit]	–
CC(C)(C)c1cc(CCC(=O)NCCc2ccccn2)cc(C(C)(C)C)c1O	5.56%	29.1 µM [falling, single point]	–
CCc1cc(=O)oc2cc(OCC=C(C)C)ccc12	15.5%	0.291 µM [rising, partial curve, poor fit]	–
O=C([O-])c1ccccc1-[n+]1c(-c2ccccc2)cc(-c2ccccc2)cc1-c1ccccc1	-36.5%	1.46 µM [falling, partial curve]	29.1 µM [falling, single point]
COCCn1c(SCC(=O)Nc2ccccc2OC)nc2ccccc2c1=O	-29.1%	6.51 µM [rising, single point]	–
